The results in this text go back to the supplement of paper PMC4962491.

The experiment relates to FaDu. The experiment can be described thus: mitochondrial oxygen consumption rate normalised to cell number, Z score over the library; higher = higher oxygen consumption (negative = OCR reduction). The note with it: treatment time 24 h, assay medium: 5 mM galactose, 5 mM pyruvate, 4 mM glutamine. How it is done: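 Primary screen: FaDu cells were incubated 24 h with Pharmakon 1600 / TDI oncology set compounds at 2 or 10 uM. Mitochondrial-specific OCR (basal minus 2 uM antimycin A) was measured on a Seahorse XF96 in assay medium with 5 mM galactose, 5 mM pyruvate and 4 mM glutamine, then corrected for Hoechst cell number and expressed as a Z score […]. Compounds that cut cell number by >66% were excluded. Two repeats.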

± gives the standard deviation of the averaged measurements. This is a selection; strong and weak results do not stand in their true shares. Single values are uncertain here, since repeats match poorly.

In the case of `Nc1nc(N)c2nc(CNc3ccc(C(=O)N[C@@H](CCC(=O)O)C(=O)O)cc3)cnc2n1`, the “mitochondrial oxygen consumption rate normalised” value (2 µM) amounted to 1.11 ± 0.33.

Take `CC(C(=O)O)c1cccc(C(=O)c2ccccc2)c1` (centres undefined): the “mitochondrial oxygen consumption rate normalised” value (2 µM) worked out at 0.337 ± 0.37.

As to `O=NN(CCCl)C(=O)NCCCl`, the “mitochondrial oxygen consumption rate normalised” value (2 µM) came out at 0.71 ± 0.3.

`O=NN(CCCl)C(=O)NCCCl` [Carmustine]: the “mitochondrial oxygen consumption rate normalised” value (2 µM) is -0.466 ± 0.76.

Consider `CCOC(=O)c1ncn2c1CN(C)C(=O)c1cc(F)ccc1-2`, for which the “mitochondrial oxygen consumption rate normalised” value (2 µM) was -0.713 ± 0.15.

For the compound `CCCC1O[C@@H]2C[C@H]3[C@@H]4CCC5=CC(=O)C=C[C@]5(C)[C@H]4[C@@H](O)C[C@]3(C)[C@]2(C(=O)CO)O1` (some centres undefined), the “mitochondrial oxygen consumption rate normalised” value (2 µM) is 0.0867 ± 0.041.

For the compound `CCCCC(CC)COC(=O)C=Cc1ccc(OC)cc1` (centres undefined), the “mitochondrial oxygen consumption rate normalised” value (2 µM) was determined as 0.887 ± 0.026.

As to `COc1ccc2[nH]c([S@@+]([O-])Cc3ncc(C)c(OC)c3C)nc2c1`, where the note is “2 µM”, the “mitochondrial oxygen consumption rate normalised” value was 0.152 ± 0.76.

Consider `CC(C)NCC(O)c1ccc(O)c(O)c1` (centres undefined), for which, for the setting “2 µM”, the “mitochondrial oxygen consumption rate normalised” value is -0.62 ± 0.7.

Turning to `CCCCCN(CCCCC)C(=O)C(CCC(=O)O)NC(=O)c1ccc(Cl)c(Cl)c1` (centres undefined), the “mitochondrial oxygen consumption rate normalised” value (2 µM) was -0.621 ± 0.4.

With `Nc1nc2c(ncn2COCCO)c(=O)[nH]1`, the “mitochondrial oxygen consumption rate normalised” value (2 µM) was found to be 0.274 ± 3.

Turning to `COc1ccc(C(=O)CC(=O)c2ccc(C(C)(C)C)cc2)cc1`, the “mitochondrial oxygen consumption rate normalised” value (2 µM) was found to be 0.974 ± 0.23.

Take `COc1ccc(C(=O)c2ccccc2)c(O)c1`: the “mitochondrial oxygen consumption rate normalised” value (2 µM) was -0.072 ± 0.5.

Consider `COc1c(N2C[C@@H]3CCCN[C@@H]3C2)c(F)cc2c(=O)c(C(=O)O)cn(C3CC3)c12`, for which the “mitochondrial oxygen consumption rate normalised” value (2 µM) was 0.253 ± 0.95.

For `COc1ncnc(NS(=O)(=O)c2ccc(N)cc2)c1OC`, the “mitochondrial oxygen consumption rate normalised” value (2 µM) is -0.102 ± 0.3.

Take `CC(=O)OCC(=O)[C@@]1(O)[C@H](C)C[C@H]2[C@@H]3CCC4=CC(=O)C=C[C@]4(C)[C@@]3(F)[C@@H](O)C[C@@]21C`: the “mitochondrial oxygen consumption rate normalised” value (2 µM) was found to be 0.233 ± 1.1.

`CCOc1cc(CC(=O)N[C@@H](CC(C)C)c2ccccc2N2CCCCC2)ccc1C(=O)O`: where the note is “2 µM”, the “mitochondrial oxygen consumption rate normalised” value was 0.571 ± 0.23.

`C#C[C@]1(O)CC[C@H]2[C@@H]3CCc4cc(O)ccc4[C@H]3CC[C@@]21C`: the “mitochondrial oxygen consumption rate normalised” value (2 µM) came to 0.64 ± 0.083.

In the case of `Nc1c2c(nc3ccccc13)CCCC2`, the “mitochondrial oxygen consumption rate normalised” value (2 µM) was -0.909 ± 0.74.

`CCCCC(CC)COC(=O)C(C#N)=C(c1ccccc1)c1ccccc1` (centres undefined): the “mitochondrial oxygen consumption rate normalised” value (2 µM) was 0.0928 ± 0.67.

For the compound `C/C(=C(\CCOP(=O)(O)O)SC(=O)c1ccccc1)N(C=O)Cc1cnc(C)nc1N`, the “mitochondrial oxygen consumption rate normalised” value (2 µM) was -0.483 ± 0.22.

Turning to `COc1cc2/c(=N/c3ccc(Br)cc3F)nc[nH]c2cc1OCC1CCN(C)CC1` [vandetanib], the “mitochondrial oxygen consumption rate normalised” value runs as follows: (2 µM) 0.386 ± 0.15; (10 µM) 0.909 ± 1.7.

As for `CN(Cc1cnc2nc(N)nc(N)c2n1)c1ccc(C(=O)NC(CCC(=O)O)C(=O)O)cc1` (racemic), where the note is “2 µM”, the “mitochondrial oxygen consumption rate normalised” value was 0.477 ± 0.22.

Regarding `C=C[C@@]1(C)CC(=O)[C@]2(O)[C@@]3(C)[C@@H](O)CCC(C)(C)[C@@H]3[C@H](O)[C@H](OC(C)=O)[C@@]2(C)O1`, the “mitochondrial oxygen consumption rate normalised” value (2 µM) is 1.98 ± 1.1.

In the case of `CCN(CC)C(=S)SSC(=S)N(CC)CC`, the “mitochondrial oxygen consumption rate normalised” value (2 µM) is 0.398 ± 0.74.

Turning to `CCN(CC)CCOc1ccc2c(c1)C(=O)c1cc(OCCN(CC)CC)ccc1-2`, for the setting “2 µM”, the “mitochondrial oxygen consumption rate normalised” value worked out at 0.568 ± 0.32.

Consider `CC1(C)O[C@@H]2C[C@H]3[C@@H]4CCC5=CC(=O)C=C[C@]5(C)[C@H]4[C@@H](O)C[C@]3(C)[C@]2(C(=O)CO)O1`, for which the “mitochondrial oxygen consumption rate normalised” value (2 µM) is -0.0372 ± 0.08.

With `O=C(CCCCCCC(=O)Nc1ccccc1)NO` [Vorinostat], the “mitochondrial oxygen consumption rate normalised” value (2 µM) worked out at 0.301 ± 0.12.

Take `CC[C@H]1OC(=O)C[C@@H](O)[C@H](C)[C@@H](O[C@@H]2O[C@H](C)[C@@H](O[C@H]3C[C@@](C)(O)[C@@H](O)[C@H](C)O3)[C@H](N(C)C)[C@H]2O)[C@@H](CC=O)C[C@@H](C)C(=O)/C=C/C(C)=C/[C@@H]1CO[C@@H]1O[C@H](C)[C@@H](O)[C@@H](OC)[C@H]1OC`: the “mitochondrial oxygen consumption rate normalised” value (2 µM) was -0.143 ± 0.84.

For `Cc1cc(NS(=O)(=O)c2ccc(N)cc2)no1`, the “mitochondrial oxygen consumption rate normalised” value (2 µM) was -0.664 ± 0.2.

Regarding `CN[C@@H]1[C@@H](O)[C@@H](O[C@@H]2[C@@H](O)[C@H](O[C@H]3OC(CN)=CC[C@H]3N)[C@@H](N)C[C@H]2N)OC[C@]1(C)O`, for the setting “2 µM”, the “mitochondrial oxygen consumption rate normalised” value was -0.364 ± 0.27.

Regarding `CC1(C)S[C@@H]2[C@H](NC(=O)[C@H](C(=O)O)c3ccsc3)C(=O)N2[C@H]1C(=O)O`, for the setting “2 µM”, the “mitochondrial oxygen consumption rate normalised” value was -0.349 ± 0.39.

Take `CC1(O)CCC(C(C)(C)O)CC1` (centres undefined): where the note is “2 µM”, the “mitochondrial oxygen consumption rate normalised” value was 0.805 ± 0.097.

As for `CCOC(=O)n1ccn(C)c1=S`, the “mitochondrial oxygen consumption rate normalised” value (2 µM) turned out to be 0.395 ± 1.4.

In the case of `O=C1CN(/N=C/c2ccc(-c3ccc([N+](=O)[O-])cc3)o2)C(=O)N1`, the “mitochondrial oxygen consumption rate normalised” value (2 µM) was -0.53 ± 0.31.

Consider `CC1(C)S[C@@H]2[C@H](NC(=O)C(C(=O)O)c3ccccc3)C(=O)N2[C@H]1C(=O)O` (some centres undefined), for which the “mitochondrial oxygen consumption rate normalised” value (2 µM) worked out at 0.646 ± 0.22.

As to `CCN(CC)CCOC(=O)C(Cc1cccc2ccccc12)CC1CCCO1` (centres undefined), the “mitochondrial oxygen consumption rate normalised” value (2 µM) stood at 0.0429 ± 0.27.

Take `C[C@H](N)[C@H](O)c1cccc(O)c1`: the “mitochondrial oxygen consumption rate normalised” value (2 µM) is 0.85 ± 0.24.

`O=C1CN(/N=C/c2ccc([N+](=O)[O-])o2)C(=O)N1`: the “mitochondrial oxygen consumption rate normalised” value (2 µM) is -0.0226 ± 0.16.

Take `Cc1ccccc1OCC(O)CO` (centres undefined): for the setting “2 µM”, the “mitochondrial oxygen consumption rate normalised” value is 0.785 ± 0.15.

For `CC(C)(C)C(=O)C(Oc1ccc(Cl)cc1)n1ccnc1` (centres undefined), under “2 µM”, the “mitochondrial oxygen consumption rate normalised” value was determined as 0.244 ± 0.014.

`C[C@H](Cn1cnc2c(N)ncnc21)OCP(=O)(O)O`: the “mitochondrial oxygen consumption rate normalised” value is, setting by setting: (2 µM) -0.543 ± 0.55; (10 µM) 0.449 ± 0.26.

As to `CCCCNc1cc(C(=O)O)cc(S(N)(=O)=O)c1Oc1ccccc1`, the “mitochondrial oxygen consumption rate normalised” value (2 µM) worked out at 0.958 ± 1.7.

Take `CC(C)n1c(/C=C/C(O)CC(O)CC(=O)O)c(-c2ccc(F)cc2)c2ccccc21` (centres undefined): for the setting “2 µM”, the “mitochondrial oxygen consumption rate normalised” value was determined as 0.166 ± 0.55.

`Cc1ccnc(NS(=O)(=O)c2ccc(N)cc2)n1`: for the setting “2 µM”, the “mitochondrial oxygen consumption rate normalised” value is -0.603 ± 0.36.

Consider `[O-][n+]1cccc(CO)c1`, for which the “mitochondrial oxygen consumption rate normalised” value (2 µM) amounted to 0.51 ± 0.21.

Turning to `COc1ccc(C[C@H](N)C(=O)N[C@H]2[C@@H](O)[C@H](n3cnc4c(N(C)C)ncnc43)O[C@@H]2CO)cc1`, the “mitochondrial oxygen consumption rate normalised” value (2 µM) is -1.19 ± 0.79.
